Assay results as given in the supplement of paper PMC4604168 (melanoma cell lines).
Some of the results follow. Many values rest on one well or one pass, so single values are uncertain.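 Cells were imaged in 1,536-well plates, and nuclei stained with an antibody against cleaved PARP were counted against all DNA-stained nuclei to give the apoptosis fraction. Screening doses were chosen to leave most cells alive, and resting and induced cleaved-PARP levels differ strongly between cell lines.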

Legend:
Experiment in all cases: cleaved PARP positive nuclei fraction relative to DMSO control; melanoma cells; higher = more apoptosis
Conditions in all cases: library dose: low library concentration; 72 h
[1] = test system: MZ2-MEL
[2] = test system: MeWo
[3] = test system: RPMI7951
[4] = test system: RVH-421
[5] = test system: SkMel28
[6] = test system: SkMel2
[7] = test system: SkMel30
[8] = test system: SkMel5
[9] = test system: UACC257
[10] = test system: UACC62

Row | SMILES | cleaved PARP positive nuclei fraction [1] | cleaved PARP positive nuclei fraction [2] | cleaved PARP positive nuclei fraction [3] | cleaved PARP positive nuclei fraction [4] | cleaved PARP positive nuclei fraction [5] | cleaved PARP positive nuclei fraction [6] | cleaved PARP positive nuclei fraction [7] | cleaved PARP positive nuclei fraction [8] | cleaved PARP positive nuclei fraction [9] | cleaved PARP positive nuclei fraction [10]
1 | Cn1cnc2c(F)c(Nc3ccc(Br)cc3Cl)c(C(=O)NOCCO)cc21 [selumetinib] + CCN(CC)CCCCNc1ncc2cc(-c3cc(OC)cc(OC)c3)c(NC(=O)NC(C)(C)C)nc2n1 [PD173074] (first compound 0.015 µM, partner dose 0.1 µM) | 185% | 175% | 103% | 86.9% | 155% | 88.8% | 114% | 71% | 112% | 156%
2 | NC1(c2ccc(-c3nc4ccn5c(=O)[nH]nc5c4cc3-c3ccccc3)cc2)CCC1 + CC(C)(C)c1cnc(CSc2cnc(NC(=O)C3CCNCC3)s2)o1 [SNS-032] (first compound 0.4 µM, partner dose 0.01 µM) | 94.5% | 75.9% | 118% | 130% | 43.8% | 106% | 70.9% | 59.4% | 68.1% | 370%
3 | CC(=O)O[C@@]12CO[C@@H]1C[C@H](O)[C@@]1(C)C(=O)[C@H](O)C3=C(C)[C@@H](OC(=O)[C@H](O)[C@@H](NC(=O)OC(C)(C)C)c4ccccc4)C[C@@](O)([C@@H](OC(=O)c4ccccc4)[C@H]21)C3(C)C [Docetaxel] + COc1cc(Nc2ncc(F)c(Nc3ccc4c(n3)NC(=O)C(C)(C)O4)n2)cc(OC)c1OC [Tamatinib] (first compound 0.0001 µM, partner dose 0.4 µM) | 526% | 284% | 437% | 86.2% | 155% | 332% | 226% | 90.8% | 492% | 574%
4 | CCN(CC)CCNC(=O)c1c(C)[nH]c(/C=C2\C(=O)Nc3ccc(F)cc32)c1C [sunitinib] + NCC(=O)Nc1ccc(-n2nc(C(F)(F)F)cc2-c2ccc3c(ccc4ccccc43)c2)cc1 [OSU03012] (first compound 0.4 µM, partner dose 1 µM) | 110% | 93.7% | 134% | 21.4% | 46.9% | 209% | 305% | 112% | 178% | 81.7%
5 | CS(=O)(=O)c1ccc(C(=O)Nc2ccc(Cl)c(-c3ccccn3)c2)c(Cl)c1 [vismodegib] + COc1cc2ncnc(Nc3ccc(Oc4ccccc4)cc3)c2cc1OC [SrcI1] (first compound 1 µM, partner dose 2 µM) | 107% | 96.1% | 57.3% | 196% | 64.6% | 53.7% | 23.6% | 78.2% | 53.3% | 172%
6 | CS(=O)(=O)c1ccc(C(=O)Nc2ccc(Cl)c(-c3ccccn3)c2)c(Cl)c1 [vismodegib] + CCc1ccc(CCOc2ccc(CC3SC(=O)NC3=O)cc2)nc1 [pioglitazone] (first compound 1 µM, partner dose 2 µM) | 106% | 108% | 30.8% | 62.7% | 166% | 42% | 37.4% | 71.5% | 161% | 98%
7 | CS(=O)(=O)c1ccc(C(=O)Nc2ccc(Cl)c(-c3ccccn3)c2)c(Cl)c1 [vismodegib] + Oc1nc(-c2ccc(C(F)(F)F)cc2)nc2c1CSCC2 [XAV939] (first compound 1 µM, partner dose 2 µM) | 100% | 112% | 157% | 94.7% | 117% | 104% | 35.3% | 94.3% | 72.9% | 120%
8 | C[C@]1(O)C[C@@H](c2nc(-c3ccc4ccc(-c5ccccc5)nc4c3)c3c(N)nccn32)C1 + O=C(Nc1ccccc1)c1cc([N+](=O)[O-])ccc1Cl [GW9662] (first compound 0.4 µM, partner dose 2 µM) | 159% | 50.3% | 73.7% | 66.3% | 194% | 75% | 31.7% | 88.3% | 210% | 151%
9 | Cn1cnc2c(F)c(Nc3ccc(Br)cc3Cl)c(C(=O)NOCCO)cc21 [selumetinib] + Cc1ccc(NC(=O)c2cccc(N(C)C)c2)cc1NC(=O)c1ccc(O)cc1 [ZM336372] (first compound 0.015 µM, partner dose 2 µM) | 193% | 114% | 105% | 184% | 302% | 184% | 59.9% | 92.2% | 112% | 124%
10 | NC1(c2ccc(-c3nc4ccn5c(=O)[nH]nc5c4cc3-c3ccccc3)cc2)CCC1 + CCCCCCCCCCCC1=C(O)C(=O)C=C(O)C1=O [Embelin] (first compound 0.4 µM, partner dose 1.2 µM) | 176% | 60.2% | 131% | 25.5% | 122% | 46.7% | 85.6% | 81.5% | 99.2% | 100%
11 | Cn1cnc2c(F)c(Nc3ccc(Br)cc3Cl)c(C(=O)NOCCO)cc21 [selumetinib] + O=C1NC(=O)/C(=C/c2ccc(-c3ccc(F)cc3O)o2)S1 [AS252424] (first compound 0.015 µM, partner dose 1 µM) | 228% | 175% | 55% | 186% | 134% | 141% | 36.2% | 62.8% | 195% | 193%
12 | CCN(CC)CCNC(=O)c1c(C)[nH]c(/C=C2\C(=O)Nc3ccc(F)cc32)c1C [sunitinib] + COc1ccc(-c2ccc3c(N4CCOCC4)nc(N4C[C@@H](C)O[C@@H](C)C4)nc3n2)cc1CO [KU0063794] (first compound 0.4 µM, partner dose 0.02 µM) | 14.7% | 1090% | 39.5% | 45% | 372% | 81.2% | 84.4% | 74.7% | 188% | 200%
13 | CS(=O)(=O)c1ccc(C(=O)Nc2ccc(Cl)c(-c3ccccn3)c2)c(Cl)c1 [vismodegib] + COc1ccc2c(c1)CCC1C2CCC2(C)C(NCCCCCCN3C(=O)C=CC3=O)CCC12 [U73122] (first compound 1 µM, partner dose 0.4 µM) | 87.4% | 58% | 59.4% | 165% | 34.4% | 122% | 60.6% | 77.8% | 117% | 58.5%
14 | NC1(c2ccc(-c3nc4ccn5c(=O)[nH]nc5c4cc3-c3ccccc3)cc2)CCC1 + CC(C)CCN1c2nc(Nc3cc(F)c(O)c(F)c3)ncc2N(C)C(=O)C1C [BID1870] (first compound 0.4 µM, partner dose 0.2 µM) | 105% | 81.5% | 71% | 59.5% | 191% | 145% | 322% | 70.2% | 266% | 141%
15 | CC(=O)O[C@@]12CO[C@@H]1C[C@H](O)[C@@]1(C)C(=O)[C@H](O)C3=C(C)[C@@H](OC(=O)[C@H](O)[C@@H](NC(=O)OC(C)(C)C)c4ccccc4)C[C@@](O)([C@@H](OC(=O)c4ccccc4)[C@H]21)C3(C)C [Docetaxel] + O=C1NC(=O)/C(=C/c2ccc(-c3ccc(F)cc3O)o2)S1 [AS252424] (first compound 0.0001 µM, partner dose 1 µM) | 758% | 494% | 209% | 188% | 180% | 695% | 407% | 180% | 194% | 1310%
16 | COc1ccc(C2=N[C@@H](c3ccc(Cl)cc3)[C@@H](c3ccc(Cl)cc3)N2C(=O)N2CCNC(=O)C2)c(OC(C)C)c1 [Nutlin-3] + Oc1nc(-c2ccc(C(F)(F)F)cc2)nc2c1CSCC2 [XAV939] (first compound 0.1 µM, partner dose 2 µM) | 174% | 47.3% | 146% | 90% | 186% | 68% | 108% | 73.4% | 234% | 218%
17 | CS(=O)(=O)c1ccc(C(=O)Nc2ccc(Cl)c(-c3ccccn3)c2)c(Cl)c1 [vismodegib] + O=C(Nc1ccccc1)c1cc([N+](=O)[O-])ccc1Cl [GW9662] (first compound 1 µM, partner dose 2 µM) | 123% | 42.3% | 67.4% | 104% | 91.1% | 93.6% | 35.8% | 75% | 62.6% | 94.5%
18 | CC1(C)CCC(c2ccc(Cl)cc2)=C(CN2CCN(c3ccc(C(=O)NS(=O)(=O)c4ccc(N[C@H](CCN5CCOCC5)CSc5ccccc5)c(S(=O)(=O)C(F)(F)F)c4)cc3)CC2)C1 + CC(C)(C)c1cnc(CSc2cnc(NC(=O)C3CCNCC3)s2)o1 [SNS-032] (first compound 0.4 µM, partner dose 0.01 µM) | 354% | 109% | 130% | 127% | 35.4% | 293% | 83.7% | 569% | 152% | 25.8%
19 | NC1(c2ccc(-c3nc4ccn5c(=O)[nH]nc5c4cc3-c3ccccc3)cc2)CCC1 + C=CCn1c(=O)c2cnc(Nc3ccc(N4CCN(C)CC4)cc3)nc2n1-c1cccc(C(C)(C)O)n1 [MK1775] (first compound 0.4 µM, partner dose 0.02 µM) | 126% | 111% | 88.1% | 61.2% | 186% | 66.8% | 90.9% | 215% | 146% | 236%
20 | CCCCCCCCc1ccc(CCC(N)(CO)CO)cc1 [fingolimod] + CN(NC(=O)CC(=O)NN(C)C(=S)c1ccccc1)C(=S)c1ccccc1 [STA4783] (first compound 2 µM, partner dose 0.006 µM) | 120% | 161% | 113% | 51.9% | 31.1% | 88.2% | 289% | 235% | 144% | 344%
21 | C[C@]1(O)C[C@@H](c2nc(-c3ccc4ccc(-c5ccccc5)nc4c3)c3c(N)nccn32)C1 + Cc1cc([N+](=O)[O-])ccc1NS(=O)(=O)c1cc(Cl)ccc1Cl [FH535] (first compound 0.4 µM, partner dose 1 µM) | 91.1% | 89.9% | 146% | 90.3% | 97.3% | 25.4% | 49.3% | 106% | 24.1% | 1170%

Rewritten as tab-separated lines: entries from further up
Row	SMILES	cleaved PARP positive nuclei fraction [1]	cleaved PARP positive nuclei fraction [2]	cleaved PARP positive nuclei fraction [3]	cleaved PARP positive nuclei fraction [4]	cleaved PARP positive nuclei fraction [5]	cleaved PARP positive nuclei fraction [6]	cleaved PARP positive nuclei fraction [7]	cleaved PARP positive nuclei fraction [8]	cleaved PARP positive nuclei fraction [9]	cleaved PARP positive nuclei fraction [10]
17	CS(=O)(=O)c1ccc(C(=O)Nc2ccc(Cl)c(-c3ccccn3)c2)c(Cl)c1 [vismodegib] + O=C(Nc1ccccc1)c1cc([N+](=O)[O-])ccc1Cl [GW9662] (first compound 1 µM, partner dose 2 µM)	123%	42.3%	67.4%	104%	91.1%	93.6%	35.8%	75%	62.6%	94.5%
18	CC1(C)CCC(c2ccc(Cl)cc2)=C(CN2CCN(c3ccc(C(=O)NS(=O)(=O)c4ccc(N[C@H](CCN5CCOCC5)CSc5ccccc5)c(S(=O)(=O)C(F)(F)F)c4)cc3)CC2)C1 + CC(C)(C)c1cnc(CSc2cnc(NC(=O)C3CCNCC3)s2)o1 [SNS-032] (first compound 0.4 µM, partner dose 0.01 µM)	354%	109%	130%	127%	35.4%	293%	83.7%	569%	152%	25.8%
